Assays:
[1] = target: ALK tyrosine kinase receptor (Homo sapiens, UniProt Q9UM73, L1196M)
[2] = target: ALK tyrosine kinase receptor (Homo sapiens, UniProt Q9UM73)

Sequences of proteins named here, by UniProt entry; tags and fusion partners are left off. Residues count along the entry.
UniProt Q9UM73, 19-1620 L1196M limits assumed: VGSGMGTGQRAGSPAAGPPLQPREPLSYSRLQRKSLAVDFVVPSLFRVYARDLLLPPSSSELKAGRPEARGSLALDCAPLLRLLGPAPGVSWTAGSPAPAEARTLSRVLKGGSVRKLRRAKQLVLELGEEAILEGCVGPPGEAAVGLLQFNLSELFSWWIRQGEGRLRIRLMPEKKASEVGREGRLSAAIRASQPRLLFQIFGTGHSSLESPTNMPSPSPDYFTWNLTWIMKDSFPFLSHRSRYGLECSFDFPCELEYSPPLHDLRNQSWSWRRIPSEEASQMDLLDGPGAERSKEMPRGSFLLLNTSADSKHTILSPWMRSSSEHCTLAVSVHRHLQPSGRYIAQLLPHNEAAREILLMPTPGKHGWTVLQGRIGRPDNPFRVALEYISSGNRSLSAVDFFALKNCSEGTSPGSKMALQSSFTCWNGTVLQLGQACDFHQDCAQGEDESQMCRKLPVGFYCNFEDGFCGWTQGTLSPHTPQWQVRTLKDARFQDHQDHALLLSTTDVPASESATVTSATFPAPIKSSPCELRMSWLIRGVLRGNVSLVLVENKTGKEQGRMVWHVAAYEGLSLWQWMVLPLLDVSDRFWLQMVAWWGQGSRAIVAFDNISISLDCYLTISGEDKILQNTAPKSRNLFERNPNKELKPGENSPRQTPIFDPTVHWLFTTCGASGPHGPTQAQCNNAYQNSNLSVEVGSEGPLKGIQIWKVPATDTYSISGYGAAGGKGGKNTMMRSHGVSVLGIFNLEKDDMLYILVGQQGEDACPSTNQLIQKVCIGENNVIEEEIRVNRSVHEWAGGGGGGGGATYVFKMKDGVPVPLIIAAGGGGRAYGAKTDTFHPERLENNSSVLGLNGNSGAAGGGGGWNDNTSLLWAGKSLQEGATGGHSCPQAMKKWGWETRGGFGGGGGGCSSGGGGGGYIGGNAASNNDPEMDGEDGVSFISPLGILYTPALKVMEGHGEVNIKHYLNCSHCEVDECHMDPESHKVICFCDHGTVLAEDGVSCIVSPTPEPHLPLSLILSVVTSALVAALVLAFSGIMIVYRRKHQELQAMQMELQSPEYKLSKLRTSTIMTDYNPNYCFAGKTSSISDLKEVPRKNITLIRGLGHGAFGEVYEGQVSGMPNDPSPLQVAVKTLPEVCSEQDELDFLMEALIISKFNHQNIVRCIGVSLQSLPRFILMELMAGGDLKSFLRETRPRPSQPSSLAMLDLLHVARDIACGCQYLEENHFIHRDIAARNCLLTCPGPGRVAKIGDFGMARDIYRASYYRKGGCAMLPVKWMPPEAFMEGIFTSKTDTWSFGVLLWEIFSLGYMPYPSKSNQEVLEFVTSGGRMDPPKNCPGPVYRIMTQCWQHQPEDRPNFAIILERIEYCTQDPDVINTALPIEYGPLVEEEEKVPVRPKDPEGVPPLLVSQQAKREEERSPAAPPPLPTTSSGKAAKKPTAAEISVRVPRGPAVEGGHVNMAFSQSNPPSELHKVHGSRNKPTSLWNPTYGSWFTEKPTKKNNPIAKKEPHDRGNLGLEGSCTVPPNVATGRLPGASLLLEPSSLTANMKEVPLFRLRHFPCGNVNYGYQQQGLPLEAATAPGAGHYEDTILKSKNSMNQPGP

IC50 [1]: 3 nM | IC50 [2]: 2 nM
Structure (SMILES): COc1cc(C2CCN(C(=O)CO)CC2)ccc1Nc1ncc(C(F)(F)F)c(Nc2ccc(C3CCN(C(=O)CO)CC3)cc2OC)n1

— ChEMBL document CHEMBL5244215, “Recent advancement of piperidine moiety in treatment of cancer- A review” (Eur J Med Chem, 2018)
